# Laboratory results reported in the supplement of paper PMC11732987, “Enantioselective OTUD7B fragment discovery through chemoproteomics screening and high-throughput optimisation” (Communications Chemistry, 2025).
# Amino acid sequences for entries named in this document (tags omitted). A change or cut given only in a name is not applied to a line headed by its entry. Residues count along the entry.
# UniProt A6NHR9: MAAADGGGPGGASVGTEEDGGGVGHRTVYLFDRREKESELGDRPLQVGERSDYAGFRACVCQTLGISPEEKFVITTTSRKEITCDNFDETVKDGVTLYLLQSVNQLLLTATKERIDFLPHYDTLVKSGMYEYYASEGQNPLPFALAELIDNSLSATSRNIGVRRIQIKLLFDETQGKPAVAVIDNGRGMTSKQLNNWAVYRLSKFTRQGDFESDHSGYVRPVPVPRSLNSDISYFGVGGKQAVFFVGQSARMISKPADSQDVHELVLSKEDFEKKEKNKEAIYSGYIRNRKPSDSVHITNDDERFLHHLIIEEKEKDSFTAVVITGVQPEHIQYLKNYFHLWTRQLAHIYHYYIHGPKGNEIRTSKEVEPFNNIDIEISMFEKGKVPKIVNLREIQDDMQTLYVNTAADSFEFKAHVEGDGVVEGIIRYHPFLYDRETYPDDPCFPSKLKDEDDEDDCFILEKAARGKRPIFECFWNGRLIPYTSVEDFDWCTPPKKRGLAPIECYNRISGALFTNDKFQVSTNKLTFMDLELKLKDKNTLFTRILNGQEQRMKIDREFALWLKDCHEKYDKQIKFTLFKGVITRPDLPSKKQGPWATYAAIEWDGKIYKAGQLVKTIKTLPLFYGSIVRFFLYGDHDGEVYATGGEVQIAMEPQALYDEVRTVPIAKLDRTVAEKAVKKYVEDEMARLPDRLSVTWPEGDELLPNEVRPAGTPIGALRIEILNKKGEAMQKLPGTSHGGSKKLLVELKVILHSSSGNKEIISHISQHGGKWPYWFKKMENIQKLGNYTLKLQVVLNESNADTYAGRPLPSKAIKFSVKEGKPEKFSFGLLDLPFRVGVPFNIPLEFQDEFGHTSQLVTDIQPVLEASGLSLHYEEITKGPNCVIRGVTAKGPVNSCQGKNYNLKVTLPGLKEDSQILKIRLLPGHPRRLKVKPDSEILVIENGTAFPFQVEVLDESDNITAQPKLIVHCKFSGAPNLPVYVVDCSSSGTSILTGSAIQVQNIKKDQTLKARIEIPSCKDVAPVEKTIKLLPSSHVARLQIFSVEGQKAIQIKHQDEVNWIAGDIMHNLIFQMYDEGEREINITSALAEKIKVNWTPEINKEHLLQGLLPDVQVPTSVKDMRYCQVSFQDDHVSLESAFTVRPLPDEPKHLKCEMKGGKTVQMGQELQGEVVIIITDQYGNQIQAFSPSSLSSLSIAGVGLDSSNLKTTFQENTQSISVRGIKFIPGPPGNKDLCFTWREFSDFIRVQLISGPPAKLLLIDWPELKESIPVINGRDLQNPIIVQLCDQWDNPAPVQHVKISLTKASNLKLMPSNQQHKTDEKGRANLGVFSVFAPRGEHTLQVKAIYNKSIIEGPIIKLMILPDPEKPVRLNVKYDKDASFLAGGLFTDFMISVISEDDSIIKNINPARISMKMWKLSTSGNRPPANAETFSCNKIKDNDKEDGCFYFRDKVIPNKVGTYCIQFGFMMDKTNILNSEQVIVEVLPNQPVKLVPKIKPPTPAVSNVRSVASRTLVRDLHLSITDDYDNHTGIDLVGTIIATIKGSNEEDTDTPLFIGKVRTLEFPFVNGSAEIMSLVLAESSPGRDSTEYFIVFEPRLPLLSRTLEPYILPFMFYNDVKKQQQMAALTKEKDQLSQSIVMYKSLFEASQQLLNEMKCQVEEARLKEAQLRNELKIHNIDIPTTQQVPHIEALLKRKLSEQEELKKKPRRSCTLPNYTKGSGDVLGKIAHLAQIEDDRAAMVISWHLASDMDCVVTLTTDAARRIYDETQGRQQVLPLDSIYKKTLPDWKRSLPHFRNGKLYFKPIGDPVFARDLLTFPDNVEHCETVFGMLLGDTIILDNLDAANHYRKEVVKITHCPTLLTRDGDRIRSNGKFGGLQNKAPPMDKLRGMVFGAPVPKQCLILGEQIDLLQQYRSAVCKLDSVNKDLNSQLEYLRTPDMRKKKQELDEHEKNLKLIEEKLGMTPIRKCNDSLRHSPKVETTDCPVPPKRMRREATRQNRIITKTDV
# UniProt Q96R06, 798-825: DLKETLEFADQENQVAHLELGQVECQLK
# UniProt Q92540, 345-365: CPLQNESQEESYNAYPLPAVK
# UniProt Q8ND83, 310-338: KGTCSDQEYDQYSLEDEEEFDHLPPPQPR
# UniProt Q9H4L7: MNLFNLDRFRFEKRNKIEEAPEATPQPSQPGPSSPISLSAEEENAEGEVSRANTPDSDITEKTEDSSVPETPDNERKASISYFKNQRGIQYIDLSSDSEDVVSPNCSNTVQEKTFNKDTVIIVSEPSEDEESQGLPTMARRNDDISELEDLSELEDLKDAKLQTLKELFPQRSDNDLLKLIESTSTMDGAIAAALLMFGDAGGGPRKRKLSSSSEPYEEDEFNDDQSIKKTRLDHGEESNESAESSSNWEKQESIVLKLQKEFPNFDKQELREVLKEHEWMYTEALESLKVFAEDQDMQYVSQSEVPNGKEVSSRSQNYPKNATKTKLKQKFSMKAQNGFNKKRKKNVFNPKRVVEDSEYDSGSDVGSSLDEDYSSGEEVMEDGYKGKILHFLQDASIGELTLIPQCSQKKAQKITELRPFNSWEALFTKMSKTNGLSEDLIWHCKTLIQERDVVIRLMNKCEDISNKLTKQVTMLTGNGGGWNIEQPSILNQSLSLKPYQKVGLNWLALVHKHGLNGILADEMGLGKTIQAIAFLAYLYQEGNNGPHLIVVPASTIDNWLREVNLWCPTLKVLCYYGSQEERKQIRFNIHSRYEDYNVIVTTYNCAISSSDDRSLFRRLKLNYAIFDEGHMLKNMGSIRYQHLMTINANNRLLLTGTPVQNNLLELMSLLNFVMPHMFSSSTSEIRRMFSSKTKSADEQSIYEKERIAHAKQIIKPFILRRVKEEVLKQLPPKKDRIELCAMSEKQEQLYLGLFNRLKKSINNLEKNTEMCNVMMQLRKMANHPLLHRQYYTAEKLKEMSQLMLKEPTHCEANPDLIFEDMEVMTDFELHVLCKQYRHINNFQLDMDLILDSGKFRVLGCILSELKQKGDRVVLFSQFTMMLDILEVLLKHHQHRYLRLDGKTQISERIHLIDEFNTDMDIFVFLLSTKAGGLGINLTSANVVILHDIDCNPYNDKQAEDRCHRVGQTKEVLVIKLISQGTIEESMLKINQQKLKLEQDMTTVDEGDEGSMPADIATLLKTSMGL
# UniProt P51532, whole entry, looked up: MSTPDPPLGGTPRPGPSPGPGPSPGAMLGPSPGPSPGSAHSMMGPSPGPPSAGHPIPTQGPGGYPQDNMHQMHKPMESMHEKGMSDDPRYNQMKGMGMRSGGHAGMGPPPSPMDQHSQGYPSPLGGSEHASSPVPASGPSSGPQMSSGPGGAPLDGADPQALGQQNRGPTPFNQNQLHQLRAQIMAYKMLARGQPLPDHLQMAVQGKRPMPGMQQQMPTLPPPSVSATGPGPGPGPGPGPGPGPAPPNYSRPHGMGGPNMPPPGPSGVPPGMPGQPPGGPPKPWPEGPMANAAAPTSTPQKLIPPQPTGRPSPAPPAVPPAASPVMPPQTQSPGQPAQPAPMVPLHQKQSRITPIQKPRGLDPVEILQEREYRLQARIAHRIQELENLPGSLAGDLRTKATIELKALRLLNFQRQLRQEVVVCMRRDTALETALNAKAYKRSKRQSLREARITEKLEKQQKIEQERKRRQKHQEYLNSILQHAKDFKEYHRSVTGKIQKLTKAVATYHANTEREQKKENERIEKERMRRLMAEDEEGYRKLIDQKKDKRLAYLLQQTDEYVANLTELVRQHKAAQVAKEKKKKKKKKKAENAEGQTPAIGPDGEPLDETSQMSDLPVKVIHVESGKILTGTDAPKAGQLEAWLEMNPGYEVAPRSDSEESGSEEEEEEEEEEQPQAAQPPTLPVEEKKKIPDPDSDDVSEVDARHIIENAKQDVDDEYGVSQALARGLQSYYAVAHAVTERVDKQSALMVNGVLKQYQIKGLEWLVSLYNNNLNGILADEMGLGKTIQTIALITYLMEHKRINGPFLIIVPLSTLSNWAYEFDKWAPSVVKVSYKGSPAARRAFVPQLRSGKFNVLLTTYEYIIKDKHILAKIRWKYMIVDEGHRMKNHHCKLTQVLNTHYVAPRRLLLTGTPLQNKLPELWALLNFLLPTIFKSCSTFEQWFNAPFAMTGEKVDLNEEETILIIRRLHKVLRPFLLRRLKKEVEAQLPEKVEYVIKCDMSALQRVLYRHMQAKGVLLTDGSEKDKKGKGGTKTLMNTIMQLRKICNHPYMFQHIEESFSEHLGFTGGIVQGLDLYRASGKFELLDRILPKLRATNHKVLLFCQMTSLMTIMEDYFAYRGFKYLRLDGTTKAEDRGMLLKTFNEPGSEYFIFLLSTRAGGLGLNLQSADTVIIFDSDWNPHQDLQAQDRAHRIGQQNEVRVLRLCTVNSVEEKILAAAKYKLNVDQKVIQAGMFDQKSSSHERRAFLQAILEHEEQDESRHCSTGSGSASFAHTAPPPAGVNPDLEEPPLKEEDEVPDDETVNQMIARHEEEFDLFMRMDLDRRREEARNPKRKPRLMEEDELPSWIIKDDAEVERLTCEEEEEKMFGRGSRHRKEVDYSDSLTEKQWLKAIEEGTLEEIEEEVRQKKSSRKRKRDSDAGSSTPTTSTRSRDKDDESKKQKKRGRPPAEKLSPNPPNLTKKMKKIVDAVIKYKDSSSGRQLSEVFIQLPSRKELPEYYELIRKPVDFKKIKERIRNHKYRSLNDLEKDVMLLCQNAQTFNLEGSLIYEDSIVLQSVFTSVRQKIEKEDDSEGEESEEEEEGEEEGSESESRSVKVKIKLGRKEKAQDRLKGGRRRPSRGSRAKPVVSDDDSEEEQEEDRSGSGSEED
# UniProt P43003, whole entry, looked up: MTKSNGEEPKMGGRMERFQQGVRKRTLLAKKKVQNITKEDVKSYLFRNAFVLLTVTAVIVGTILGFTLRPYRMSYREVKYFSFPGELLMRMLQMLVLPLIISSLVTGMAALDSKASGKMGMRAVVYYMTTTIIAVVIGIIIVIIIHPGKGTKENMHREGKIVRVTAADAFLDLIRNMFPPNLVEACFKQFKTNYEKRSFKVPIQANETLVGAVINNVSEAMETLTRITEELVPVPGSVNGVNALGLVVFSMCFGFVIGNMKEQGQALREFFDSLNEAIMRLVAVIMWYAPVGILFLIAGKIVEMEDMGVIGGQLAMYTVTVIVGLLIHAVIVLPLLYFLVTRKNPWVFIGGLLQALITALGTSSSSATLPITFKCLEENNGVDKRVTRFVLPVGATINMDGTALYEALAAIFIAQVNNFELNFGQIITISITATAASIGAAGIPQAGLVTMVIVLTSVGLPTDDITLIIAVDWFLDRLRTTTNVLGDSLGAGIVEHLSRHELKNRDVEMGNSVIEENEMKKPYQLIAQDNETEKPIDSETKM
# UniProt Q96BD8: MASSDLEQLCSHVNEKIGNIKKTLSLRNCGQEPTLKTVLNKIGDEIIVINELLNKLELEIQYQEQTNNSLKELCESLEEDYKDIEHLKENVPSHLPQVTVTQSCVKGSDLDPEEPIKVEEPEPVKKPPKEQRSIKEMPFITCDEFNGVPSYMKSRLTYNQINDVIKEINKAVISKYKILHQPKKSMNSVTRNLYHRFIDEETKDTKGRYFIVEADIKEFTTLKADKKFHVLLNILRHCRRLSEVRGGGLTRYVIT
# UniProt Q8N0X7, 389-414: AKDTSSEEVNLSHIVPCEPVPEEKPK
# UniProt Q15599, 241-274: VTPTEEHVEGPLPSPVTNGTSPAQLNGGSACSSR
# UniProt Q96QE2: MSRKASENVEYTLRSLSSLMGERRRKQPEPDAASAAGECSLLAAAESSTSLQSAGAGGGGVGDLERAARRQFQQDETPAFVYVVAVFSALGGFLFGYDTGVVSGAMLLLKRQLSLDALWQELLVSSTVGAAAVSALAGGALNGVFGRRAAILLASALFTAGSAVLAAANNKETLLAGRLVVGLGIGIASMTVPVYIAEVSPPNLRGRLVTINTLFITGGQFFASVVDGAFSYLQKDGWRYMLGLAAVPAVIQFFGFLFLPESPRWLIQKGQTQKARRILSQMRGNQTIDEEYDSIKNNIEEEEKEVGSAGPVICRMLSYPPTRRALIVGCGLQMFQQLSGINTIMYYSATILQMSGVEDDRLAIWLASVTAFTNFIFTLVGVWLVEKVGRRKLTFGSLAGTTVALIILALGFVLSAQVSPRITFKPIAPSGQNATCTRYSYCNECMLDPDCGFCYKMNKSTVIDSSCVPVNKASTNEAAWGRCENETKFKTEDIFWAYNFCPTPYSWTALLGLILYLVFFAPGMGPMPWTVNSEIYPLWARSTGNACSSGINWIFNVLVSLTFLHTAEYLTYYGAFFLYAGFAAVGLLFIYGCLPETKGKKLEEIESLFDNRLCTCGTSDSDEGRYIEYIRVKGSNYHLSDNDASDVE
# UniProt P53007, whole entry, looked up: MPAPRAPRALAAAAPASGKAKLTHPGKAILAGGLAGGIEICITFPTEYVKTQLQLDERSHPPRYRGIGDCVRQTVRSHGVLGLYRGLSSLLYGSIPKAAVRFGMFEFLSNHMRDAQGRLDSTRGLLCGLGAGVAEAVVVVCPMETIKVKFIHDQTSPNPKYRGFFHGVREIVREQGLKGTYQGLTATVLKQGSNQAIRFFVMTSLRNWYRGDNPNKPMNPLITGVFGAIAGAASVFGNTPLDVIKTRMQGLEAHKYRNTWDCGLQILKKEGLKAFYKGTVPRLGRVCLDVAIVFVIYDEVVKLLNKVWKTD
# UniProt P19634, 794-813: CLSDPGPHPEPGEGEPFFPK
# This is one part of the list. The data scatter; read single values as rough.
# How the values were obtained:
# [1] = compound: ClCC(=O)N[C@@H]1CCCc2ccccc12; assay: log2 mean competition ratio of IA-DTB cysteine labelling (DMSO/compound) (log2 ratio); higher = stronger cysteine engagement by compound; conditions: treatment time: 4 h, cell line lysate: HEK293T
# Method: (§1)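 IA-DTB competitive cysteine chemoproteomics in HEK293T RIPA lysate. Lysates were treated with compound 29 or 30 at 50 or 200 µM for 4 h, then IA-DTB (500 µM, 1 h), trypsin-digested, NeutrAvidin-enriched and analysed by diaPASEF. Competition ratio = intensity DMSO / intensity compound (n=4 treated, n=64 DMSO); binding: mean log2 CR ≥ 1 and p ≤ 0.05 plus QC filters. Target is the cysteine site.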
# [2] = compound: ClCC(=O)N[C@H]1CCCc2ccccc12; assay: as above; conditions: treatment time: 4 h, cell line lysate: HEK293T
# Method: as §1
Target,log2 mean competition ratio ([1]; 50 µM),log2 mean competition ratio ([1]; 200 µM),log2 mean competition ratio ([2]; 50 µM),log2 mean competition ratio ([2]; 200 µM)
SMCHD1 C897 (UniProt A6NHR9),-0.0755,-0.00318,-0.177,-0.0214
SOCS2 C5 (UniProt O14508),-0.105,0.119,-0.25,0.135
SMYD4 C640 (UniProt Q8IYR2),-0.0623,0.209,-0.233,0.214
SPAG5 C822 (UniProt Q96R06),-0.329,0.09,0.00652,0.118
SMG7 C345 (UniProt Q92540),-0.126,0.0412,0.442,0.162
SKP1 C120 (UniProt P63208),-0.0864,-0.144,0.313,0.0852
SMARCA1 C168 (UniProt P28370),-0.0479,-0.0651,0.357,-0.0525
SLAIN1 C449 (UniProt Q8ND83),0.137,-0.199,-0.119,0.134
SKIV2L C913 (UniProt Q15477),-0.0791,0.0401,-0.457,0.0118
SMG1 C2673 (UniProt Q96Q15),-0.187,-0.385,0.364,-0.349
SMARCAD1 C741 (UniProt Q9H4L7),0.643,0.0236,-0.163,-0.0913
SMCHD1 C1656 (UniProt A6NHR9),-0.0523,-0.0496,0.198,-0.17
SKP1 C160 (UniProt P63208),-0.0753,-0.0918,0.331,0.127
SMARCA4 C423 (UniProt P51532),-0.137,-0.251,0.494,-0.166
SLC43A2 C392 (UniProt Q8N370),-0.138,-0.126,-0.0419,-0.45
SLC30A9 C141 (UniProt Q6PML9),0.164,-0.161,0.581,0.0071
SLC25A19 C222 (UniProt Q9HC21),-0.196,-0.0267,-0.0161,0.09
SMG8 C861 (UniProt Q8ND04),-0.0482,0.133,-0.393,0.0727
SLC25A6 C257 (UniProt P12236),0.39,0.487,0.718,0.513
SNX30 C381 (UniProt Q5VWJ9),0.077,0.0113,-0.337,0.129
SLC1A3 C375 (UniProt P43003),0.0509,0.204,0.0864,0.339
SKA1 C142 (UniProt Q96BD8),0.228,0.0474,0.199,0.0902
SPART C405 (UniProt Q8N0X7),–,–,-0.565,-0.46
SLC27A2 C301 (UniProt O14975),–,–,-0.374,0.0721
SMARCA2 C1296 (UniProt P51531),–,–,0.125,0.0728

Target,log2 mean competition ratio ([1]; 50 µM),log2 mean competition ratio ([1]; 200 µM),log2 mean competition ratio ([2]; 50 µM),log2 mean competition ratio ([2]; 200 µM)
SMPD4 C164 (UniProt Q9NXE4),–,–,-0.586,-0.0699
SPAG1 C380 (UniProt Q07617),–,–,-0.163,0.077
SND1 C152 (UniProt Q7KZF4),–,–,0.0355,-0.0266
SLIRP C48 (UniProt Q9GZT3),–,–,0.0845,-0.062
SLC27A3 C364,–,–,-0.16,-0.324
SLC5A3 C575 (UniProt P53794),–,–,-0.606,0.116
SLC9A3R2 C271 (UniProt Q15599),–,–,-0.0789,0.211
SNX5 C227 (UniProt Q9Y5X3),–,–,0.062,-0.00993
SNRNP200 C1580 (UniProt O75643),–,–,-0.00341,-0.226
SLC2A13 C467 (UniProt Q96QE2),–,–,-0.0906,0.106
SLC25A10 C240 (UniProt Q9UBX3),–,–,0.113,-0.00391
SLC25A28 C49 (UniProt Q96A46),–,–,-0.406,-0.193
SLC25A1 C262 (UniProt P53007),–,–,0.105,0.188
SLC39A6 C146 (UniProt Q13433),–,–,0.0679,-0.173
SLC9A1 C794 (UniProt P19634),–,–,-0.446,-0.0352
SOCS6 C342 (UniProt O14544),–,–,-0.0573,0.2
SMC1A C1210 (UniProt Q14683),–,–,-0.224,-0.0521
SLAIN1 C313 (UniProt Q8ND83),–,–,0.0806,-0.152
SON C2070 (UniProt P18583),–,–,0.591,0.0439
SPAG5 C1101 (UniProt Q96R06),–,–,0.296,0.527
SMCHD1 C444 (UniProt A6NHR9),–,–,8.42e-05,0.0274
SLC1A1 C343,–,–,-0.114,0.151
SKIV2L C579 (UniProt Q15477),–,–,-0.00733,0.03
SKP2 C423 (UniProt Q13309),–,–,0.111,-0.0177
SLC30A1 C469 (UniProt Q9Y6M5),–,–,-0.158,0.403

# Part of the list above with just log2 mean competition ratio ([2]; 200 µM) and log2 mean competition ratio ([1]; 200 µM):
Target,log2 mean competition ratio ([2]; 200 µM),log2 mean competition ratio ([1]; 200 µM)
SPAG1 C380 (UniProt Q07617),0.077,–
SLAIN1 C313 (UniProt Q8ND83),-0.152,–
